Test results published in PMC8630767.
No constants are given. Whether binding was seen depends on the method and setting. In cells and extracts the contact can be indirect. A result given as binding can be weak or reduced; the word gives no strength.

Amino acid sequences for entries named in this document (tags omitted). A change or cut given only in a name is not applied to a line headed by its entry. Chains listed by the source or under a name are the forms on record and can include a tag or linker.
2×Flag-xlMRAP2.S (Xenopus laevis melanocortin receptor accessory protein 2, S subgenome copy) (A0A1L8G336, form named): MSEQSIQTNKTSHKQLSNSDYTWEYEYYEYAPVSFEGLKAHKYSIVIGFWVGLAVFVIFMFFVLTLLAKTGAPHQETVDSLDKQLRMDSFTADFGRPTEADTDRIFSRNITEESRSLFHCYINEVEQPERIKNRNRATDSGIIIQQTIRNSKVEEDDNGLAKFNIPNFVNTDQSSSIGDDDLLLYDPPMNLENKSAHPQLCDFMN
xlMRAP2.L with N-terminal VF2 (part of Venus) and C-terminal 2×Flag (A0A1L8G9N8, form named): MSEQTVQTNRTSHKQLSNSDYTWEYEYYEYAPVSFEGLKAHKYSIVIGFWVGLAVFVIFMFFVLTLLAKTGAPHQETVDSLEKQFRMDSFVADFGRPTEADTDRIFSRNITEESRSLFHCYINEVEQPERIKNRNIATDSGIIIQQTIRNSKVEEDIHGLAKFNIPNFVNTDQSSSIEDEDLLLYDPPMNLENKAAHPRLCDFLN

Tests used:
[1] = biological target: xlMC3R.S with VF1 (part of Venus) at the C-terminus (Xenopus laevis); test: split reporter; bimolecular fluorescence complementation of split Venus (VF1 on xlMC3Rs, VF2 on xlMRAPs) in transfected HEK293T cells, fixed 24 h after transfection, confocal microscopy
[2] = biological target: 3×HA-xlMC3R.S (Xenopus laevis melanocortin-3 receptor, S subgenome copy) (Xenopus laevis); test: co-IP; HEK293T cells co-transfected with 3×HA-xlMC3Rs and 2×Flag-xlMRAPs; lysate incubated with HA-tag rabbit mAb overnight at 4°C, protein A/G agarose beads; blot with anti-FLAG and anti-HA

## xlMRAP2.S with N-terminal VF2 (part of Venus) and C-terminal 2×Flag (from UniProt A0A1L8G336 1-205)
[1]
  binding: binds

## 2×Flag-xlMRAP2.L (Xenopus laevis melanocortin receptor accessory protein 2, L subgenome copy) (from UniProt A0A1L8G9N8 1-205)
[2]
  binding: binds

## 2×Flag-xlMRAP2.S (Xenopus laevis melanocortin receptor accessory protein 2, S subgenome copy) (from UniProt A0A1L8G336 1-205)
[2]
  binding: binds

## xlMRAP2.L with N-terminal VF2 (part of Venus) and C-terminal 2×Flag (from UniProt A0A1L8G9N8 1-205)
[1]
  binding: binds
